Laboratory results published in patent US20050261190A1.
Results are given in words; binding and its absence hold for the method and conditions named. For part of these data: Binding seen in cells or lysates may run through a third protein. Some results given as binding are weak or reduced against the parent protein; the word gives no strength. Each block holds one substance with its values, some of them ahead of it.

By UniProt entry, the sequences of proteins in these tests, tags left out. Where a name states a change or a piece, a line headed by the entry shows the natural chain unless it says otherwise. Residues count along the entry.
UniProt P08622, residues 2-376: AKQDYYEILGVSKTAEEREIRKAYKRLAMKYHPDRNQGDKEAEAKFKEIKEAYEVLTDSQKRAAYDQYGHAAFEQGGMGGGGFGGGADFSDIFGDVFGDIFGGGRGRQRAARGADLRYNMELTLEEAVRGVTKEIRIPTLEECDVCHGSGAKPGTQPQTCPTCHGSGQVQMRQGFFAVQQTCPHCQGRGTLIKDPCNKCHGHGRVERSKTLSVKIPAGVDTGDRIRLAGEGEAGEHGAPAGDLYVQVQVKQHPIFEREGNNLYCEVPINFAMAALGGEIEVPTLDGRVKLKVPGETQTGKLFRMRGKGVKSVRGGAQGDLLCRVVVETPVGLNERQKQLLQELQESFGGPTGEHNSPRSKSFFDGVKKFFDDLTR
UniProt P0DMV8: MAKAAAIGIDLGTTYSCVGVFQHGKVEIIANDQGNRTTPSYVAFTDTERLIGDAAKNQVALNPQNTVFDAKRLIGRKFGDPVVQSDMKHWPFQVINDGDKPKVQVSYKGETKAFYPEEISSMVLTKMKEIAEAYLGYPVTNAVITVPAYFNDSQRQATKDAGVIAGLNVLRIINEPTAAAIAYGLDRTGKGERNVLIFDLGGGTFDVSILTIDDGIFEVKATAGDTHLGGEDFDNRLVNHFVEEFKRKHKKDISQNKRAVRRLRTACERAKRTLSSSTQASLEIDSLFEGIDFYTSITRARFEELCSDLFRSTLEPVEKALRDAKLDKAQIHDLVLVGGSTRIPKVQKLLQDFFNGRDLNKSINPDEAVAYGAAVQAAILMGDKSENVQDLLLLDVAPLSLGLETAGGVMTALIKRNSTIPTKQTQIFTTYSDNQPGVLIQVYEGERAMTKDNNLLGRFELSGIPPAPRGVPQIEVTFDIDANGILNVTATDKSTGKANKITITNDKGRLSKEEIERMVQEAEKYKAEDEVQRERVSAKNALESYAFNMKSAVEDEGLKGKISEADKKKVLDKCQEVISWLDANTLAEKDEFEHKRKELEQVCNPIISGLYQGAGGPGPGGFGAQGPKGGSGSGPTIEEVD
GST-Hsp70 (full Hsp70, 1-640): residues 1-640 of P0DMV8
GST-Hsp70 (1-120): residues 1-120 of P0DMV8
heat shock protein 70 inducible (Hsp70), endogenous: residues 2-641 of P0DMV8
UniProt P11142, residues 2-646: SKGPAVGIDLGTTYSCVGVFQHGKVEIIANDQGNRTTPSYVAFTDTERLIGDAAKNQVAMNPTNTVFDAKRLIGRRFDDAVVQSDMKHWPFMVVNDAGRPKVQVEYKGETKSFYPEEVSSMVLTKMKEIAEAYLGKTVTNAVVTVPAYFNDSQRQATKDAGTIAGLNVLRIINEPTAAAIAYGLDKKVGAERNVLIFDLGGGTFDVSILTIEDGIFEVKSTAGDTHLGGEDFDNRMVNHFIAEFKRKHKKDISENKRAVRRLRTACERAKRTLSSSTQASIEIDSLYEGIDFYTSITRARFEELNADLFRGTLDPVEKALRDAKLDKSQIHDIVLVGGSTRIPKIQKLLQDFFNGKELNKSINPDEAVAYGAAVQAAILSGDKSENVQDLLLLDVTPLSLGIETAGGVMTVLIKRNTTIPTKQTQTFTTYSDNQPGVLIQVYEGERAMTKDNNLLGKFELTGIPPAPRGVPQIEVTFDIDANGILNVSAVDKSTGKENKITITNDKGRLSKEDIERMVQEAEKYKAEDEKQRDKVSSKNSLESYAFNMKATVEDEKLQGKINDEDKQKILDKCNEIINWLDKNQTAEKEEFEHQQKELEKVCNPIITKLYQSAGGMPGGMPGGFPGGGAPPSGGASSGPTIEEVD
UniProt Q9UNN5: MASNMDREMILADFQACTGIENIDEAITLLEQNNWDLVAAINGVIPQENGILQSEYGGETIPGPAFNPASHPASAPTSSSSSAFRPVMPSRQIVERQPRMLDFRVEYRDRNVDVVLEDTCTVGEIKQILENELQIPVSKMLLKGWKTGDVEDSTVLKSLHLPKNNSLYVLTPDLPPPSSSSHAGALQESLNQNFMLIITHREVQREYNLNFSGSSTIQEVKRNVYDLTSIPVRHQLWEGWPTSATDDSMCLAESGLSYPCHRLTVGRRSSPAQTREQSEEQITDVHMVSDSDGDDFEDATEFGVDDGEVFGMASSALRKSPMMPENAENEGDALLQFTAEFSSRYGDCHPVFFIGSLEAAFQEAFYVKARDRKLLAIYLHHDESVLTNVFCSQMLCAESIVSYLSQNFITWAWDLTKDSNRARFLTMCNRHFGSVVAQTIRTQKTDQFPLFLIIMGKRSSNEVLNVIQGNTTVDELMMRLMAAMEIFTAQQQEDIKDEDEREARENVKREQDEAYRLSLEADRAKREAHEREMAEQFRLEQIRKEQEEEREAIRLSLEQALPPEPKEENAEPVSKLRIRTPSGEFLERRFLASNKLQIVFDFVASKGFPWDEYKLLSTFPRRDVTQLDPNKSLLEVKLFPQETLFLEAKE

What was measured:
[1] = target: DnaJ (E. coli) (UniProt P08622); assay: co-purification from E. coli lysate
[2] = target: GST-Hsp70 (full Hsp70, 1-640) (human) (UniProt P0DMV8); assay: GST pull-down on glutathione sepharose without ATP, immunoblot
[3] = target: GST-Hsp70 (1-120) (human) (UniProt P0DMV8); assay: GST pull-down with GST-Hsp70 deletion mutants, with or without 10 mM ATP (FIG. 4)
[4] = target: GST-Hsp70 (1-120) (human) (UniProt P0DMV8); assay: GST pull-down on glutathione sepharose in the presence of 10 mM ATP, immunoblot
[5] = target: heat shock protein 70 inducible (Hsp70), endogenous (human) (UniProt P0DMV8); assay: co-immunoprecipitation with anti-Flag M2 agarose from HEK293T lysate, western blot
[6] = target: heat shock protein 70 cognate (Hsc70), endogenous (human) (UniProt P11142); assay: as above
[7] = target: heat shock protein 70 inducible (Hsp70), endogenous (human) (UniProt P0DMV8); assay: co-immunoprecipitation from HEK293T lysate, western blot (FIG. 3C)
[8] = target: heat shock protein 70 cognate (Hsc70), endogenous (human) (UniProt P11142); assay: as above
[9] = target: heat shock protein 70 inducible (Hsp70), endogenous (human) (UniProt P0DMV8); assay: co-immunoprecipitation from HEK293T lysate, western blot (FIG. 3)
[10] = target: heat shock protein 70 cognate (Hsc70), endogenous (human) (UniProt P11142); assay: as above
[11] = target: heat shock protein 70 inducible (Hsp70), endogenous (human) (UniProt P0DMV8); assay: immunoprecipitation with polyclonal anti-hFAF1 antibody from HEK293T cells, western blot
[12] = target: heat shock protein 70 cognate (Hsc70), endogenous (human) (UniProt P11142); assay: as above
[13] = target: heat shock protein 70 inducible (Hsp70), endogenous (human) (UniProt P0DMV8); assay: immunoprecipitation with polyclonal anti-hFAF1 antibody, western blot (FIG. 2)
[14] = target: heat shock protein 70 cognate (Hsc70), endogenous (human) (UniProt P11142); assay: as above

binding [1]: binds
binding [2]: binds
binding [3]: binds
binding [4]: binds
Substance: purified recombinant hFAF1 (from UniProt Q9UNN5 1-650)

binding [7]: binds
binding [8]: binds
binding [9]: binds
binding [10]: binds
Substance: Flag-tagged hFAF1 fragment, amino acid 82-180 (from UniProt Q9UNN5 82-180)

binding [5]: binds
binding [6]: binds
Substance: Flag-hFAF1[82-650] (from UniProt Q9UNN5 82-650)

The next lines start with the substance.

Substance: Flag-hFAF1[1-201] (from UniProt Q9UNN5 1-201)
binding [5]: binds
binding [6]: binds

Substance: Flag-hFAF1[1-345] (from UniProt Q9UNN5 1-345)
binding [5]: binds
binding [6]: binds

Substance: endogenous hFAF1 (from UniProt Q9UNN5 1-650)
binding [11]: binds
binding [12]: binds
binding [13]: binds
binding [14]: binds
